Laboratory results: publication PMC6817822
Results are given in words; binding and its absence hold for the method and conditions named. Binding seen in cells or lysates may run through a third protein. Some results given as binding are weak or reduced against the parent protein; the word gives no strength. Each block holds one molecule with its values, some of them ahead of it.

The chains behind the UniProt entries cited, without tags or fusion partners.
UniProt P46937: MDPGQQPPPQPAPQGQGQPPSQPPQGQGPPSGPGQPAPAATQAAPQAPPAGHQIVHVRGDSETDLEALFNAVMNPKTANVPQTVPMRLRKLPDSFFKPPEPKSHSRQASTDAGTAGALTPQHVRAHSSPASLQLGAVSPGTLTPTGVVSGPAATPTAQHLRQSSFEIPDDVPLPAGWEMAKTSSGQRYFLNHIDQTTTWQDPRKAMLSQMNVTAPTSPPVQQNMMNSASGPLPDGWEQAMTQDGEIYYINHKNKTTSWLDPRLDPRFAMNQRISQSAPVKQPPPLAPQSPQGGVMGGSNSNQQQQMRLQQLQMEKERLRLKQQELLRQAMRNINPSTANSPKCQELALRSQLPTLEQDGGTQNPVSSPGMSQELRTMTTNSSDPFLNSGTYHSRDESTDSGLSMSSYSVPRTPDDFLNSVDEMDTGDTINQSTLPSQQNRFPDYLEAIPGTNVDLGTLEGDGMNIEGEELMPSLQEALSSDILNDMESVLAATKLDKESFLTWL

What was measured:
[1] = biological target: T1, PR55α regulatory subunit of PP2A (human (endogenous in CD18/HPAF)) (UniProt P63151); test: co-IP; reciprocal co-immunoprecipitation from 1 mg lysate of CD18/HPAF cells expressing Control-shRNA or PR55α-shRNA, with anti-PR55α (100C1) or anti-YAP antibody; immunoblotting; nonimmunized IgG as control; in Fig. 6b half of the anti-PR55α precipitate was treated with shrimp alkaline phosphatase (10 units/ml, 37 °C, 1 h)
T1 sequence: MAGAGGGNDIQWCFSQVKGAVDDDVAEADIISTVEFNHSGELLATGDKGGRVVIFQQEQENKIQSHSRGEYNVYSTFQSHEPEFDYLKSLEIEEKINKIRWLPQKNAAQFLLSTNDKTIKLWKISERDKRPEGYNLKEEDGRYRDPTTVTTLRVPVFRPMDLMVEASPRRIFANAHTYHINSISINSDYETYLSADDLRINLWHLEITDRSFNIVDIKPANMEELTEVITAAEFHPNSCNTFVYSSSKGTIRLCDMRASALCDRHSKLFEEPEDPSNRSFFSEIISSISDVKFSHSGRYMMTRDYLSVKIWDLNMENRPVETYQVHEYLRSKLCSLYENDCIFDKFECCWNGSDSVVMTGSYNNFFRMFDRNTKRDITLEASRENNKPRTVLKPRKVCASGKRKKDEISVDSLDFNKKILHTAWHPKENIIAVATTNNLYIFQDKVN

[2] = biological target: Yes-associated protein (YAP) (human (endogenous in CD18/HPAF)) (UniProt P46937); test: as above

binding [1]: binds
Molecule: Yes-associated protein (YAP) (from UniProt P46937 1-504)

binding [2]: binds
B1: PR55α regulatory subunit of PP2A (protein, UniProt P63151 1-447)
chain: T1 sequence
